# Primary screen of a compound library

Protein sequences, listed by entry. Tags and fused reporters are not part of them. Residues count along the entry.
UniProt I6X8D2, whole entry: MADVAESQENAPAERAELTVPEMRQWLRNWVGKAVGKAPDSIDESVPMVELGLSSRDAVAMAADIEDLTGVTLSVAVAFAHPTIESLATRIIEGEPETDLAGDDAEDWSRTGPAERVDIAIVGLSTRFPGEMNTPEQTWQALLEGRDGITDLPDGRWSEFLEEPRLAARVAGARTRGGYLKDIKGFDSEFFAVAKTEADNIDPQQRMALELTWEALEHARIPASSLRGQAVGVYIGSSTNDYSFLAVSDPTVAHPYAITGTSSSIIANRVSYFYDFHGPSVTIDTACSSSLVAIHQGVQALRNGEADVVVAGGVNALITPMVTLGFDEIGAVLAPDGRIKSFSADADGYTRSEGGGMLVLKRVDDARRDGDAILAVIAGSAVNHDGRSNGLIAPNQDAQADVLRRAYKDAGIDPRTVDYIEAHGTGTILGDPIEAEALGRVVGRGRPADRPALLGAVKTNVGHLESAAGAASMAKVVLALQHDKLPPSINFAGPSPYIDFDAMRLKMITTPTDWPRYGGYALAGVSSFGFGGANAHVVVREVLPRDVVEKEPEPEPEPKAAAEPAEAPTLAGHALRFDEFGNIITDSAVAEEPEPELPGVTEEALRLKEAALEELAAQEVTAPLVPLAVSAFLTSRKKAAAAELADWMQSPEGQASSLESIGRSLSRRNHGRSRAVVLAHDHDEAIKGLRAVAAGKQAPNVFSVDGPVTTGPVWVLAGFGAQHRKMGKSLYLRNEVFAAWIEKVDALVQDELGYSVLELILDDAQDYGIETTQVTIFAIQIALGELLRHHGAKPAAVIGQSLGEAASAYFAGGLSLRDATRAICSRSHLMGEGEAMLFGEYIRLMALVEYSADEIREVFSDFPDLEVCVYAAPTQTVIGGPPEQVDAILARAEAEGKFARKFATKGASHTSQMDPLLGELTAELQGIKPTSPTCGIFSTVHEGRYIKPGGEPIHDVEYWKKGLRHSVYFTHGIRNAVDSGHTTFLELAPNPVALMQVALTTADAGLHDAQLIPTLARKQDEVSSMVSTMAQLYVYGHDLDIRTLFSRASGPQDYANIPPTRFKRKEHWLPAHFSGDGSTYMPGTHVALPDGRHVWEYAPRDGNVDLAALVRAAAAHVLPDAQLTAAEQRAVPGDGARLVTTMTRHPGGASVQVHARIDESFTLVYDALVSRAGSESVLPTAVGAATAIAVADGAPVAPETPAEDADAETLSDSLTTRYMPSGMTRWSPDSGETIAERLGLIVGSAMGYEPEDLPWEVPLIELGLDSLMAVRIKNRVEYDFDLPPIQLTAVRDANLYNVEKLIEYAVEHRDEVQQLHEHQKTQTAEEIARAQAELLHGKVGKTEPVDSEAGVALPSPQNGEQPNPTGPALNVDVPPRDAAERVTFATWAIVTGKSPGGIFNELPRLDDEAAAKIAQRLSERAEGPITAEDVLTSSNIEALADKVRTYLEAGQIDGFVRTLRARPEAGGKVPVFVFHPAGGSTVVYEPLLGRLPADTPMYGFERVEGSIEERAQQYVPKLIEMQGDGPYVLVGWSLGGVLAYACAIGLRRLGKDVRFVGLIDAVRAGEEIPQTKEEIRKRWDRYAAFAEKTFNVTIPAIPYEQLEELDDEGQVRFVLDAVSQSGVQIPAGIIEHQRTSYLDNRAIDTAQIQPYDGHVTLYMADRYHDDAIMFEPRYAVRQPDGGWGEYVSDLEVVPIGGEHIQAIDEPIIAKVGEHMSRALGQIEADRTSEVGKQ
UniProt P9WNZ1, whole entry: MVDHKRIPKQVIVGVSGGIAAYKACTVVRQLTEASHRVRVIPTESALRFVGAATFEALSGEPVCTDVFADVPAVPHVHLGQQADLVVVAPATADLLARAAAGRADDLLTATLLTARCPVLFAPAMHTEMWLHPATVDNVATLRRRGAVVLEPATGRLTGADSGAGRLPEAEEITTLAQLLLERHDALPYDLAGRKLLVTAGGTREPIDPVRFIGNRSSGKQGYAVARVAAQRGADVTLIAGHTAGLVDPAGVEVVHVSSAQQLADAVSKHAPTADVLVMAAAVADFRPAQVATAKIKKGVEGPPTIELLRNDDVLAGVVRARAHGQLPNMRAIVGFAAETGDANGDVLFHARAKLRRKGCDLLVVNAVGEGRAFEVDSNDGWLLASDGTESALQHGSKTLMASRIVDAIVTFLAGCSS
UniProt P9WFT3, whole entry: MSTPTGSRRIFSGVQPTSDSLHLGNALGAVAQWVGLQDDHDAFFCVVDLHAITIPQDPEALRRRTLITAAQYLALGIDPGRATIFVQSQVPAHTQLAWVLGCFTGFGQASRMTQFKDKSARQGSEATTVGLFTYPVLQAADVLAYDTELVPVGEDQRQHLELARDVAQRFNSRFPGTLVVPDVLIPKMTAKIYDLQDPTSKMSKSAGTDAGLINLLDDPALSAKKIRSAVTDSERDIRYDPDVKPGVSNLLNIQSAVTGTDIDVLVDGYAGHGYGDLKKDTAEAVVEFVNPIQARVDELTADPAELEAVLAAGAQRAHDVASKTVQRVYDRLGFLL
UniProt A4I591, 1-473: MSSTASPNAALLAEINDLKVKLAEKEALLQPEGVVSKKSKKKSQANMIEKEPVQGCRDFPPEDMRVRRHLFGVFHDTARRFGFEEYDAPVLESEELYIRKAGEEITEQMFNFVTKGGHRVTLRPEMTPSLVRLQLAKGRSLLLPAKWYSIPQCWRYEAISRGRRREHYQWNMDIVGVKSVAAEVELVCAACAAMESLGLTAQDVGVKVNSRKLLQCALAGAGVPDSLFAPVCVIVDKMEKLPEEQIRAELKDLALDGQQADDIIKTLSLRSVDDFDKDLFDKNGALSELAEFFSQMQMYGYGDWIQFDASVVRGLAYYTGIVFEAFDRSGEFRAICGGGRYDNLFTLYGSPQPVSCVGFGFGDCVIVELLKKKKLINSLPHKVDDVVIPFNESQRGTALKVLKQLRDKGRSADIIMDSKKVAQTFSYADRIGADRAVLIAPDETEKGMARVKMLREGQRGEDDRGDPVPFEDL
UniProt Q4DA54, 1-478: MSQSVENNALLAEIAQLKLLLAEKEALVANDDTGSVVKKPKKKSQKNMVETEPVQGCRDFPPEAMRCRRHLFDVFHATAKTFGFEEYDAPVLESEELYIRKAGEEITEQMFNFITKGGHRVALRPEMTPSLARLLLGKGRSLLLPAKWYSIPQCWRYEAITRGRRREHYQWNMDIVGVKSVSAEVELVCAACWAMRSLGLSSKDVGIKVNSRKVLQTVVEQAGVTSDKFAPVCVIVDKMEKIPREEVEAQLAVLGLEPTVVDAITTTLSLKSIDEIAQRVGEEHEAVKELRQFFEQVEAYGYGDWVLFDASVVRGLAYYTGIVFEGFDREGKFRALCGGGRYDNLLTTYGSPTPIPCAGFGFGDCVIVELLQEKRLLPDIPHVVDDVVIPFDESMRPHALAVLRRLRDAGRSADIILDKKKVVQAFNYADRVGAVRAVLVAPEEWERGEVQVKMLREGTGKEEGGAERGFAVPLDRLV

The values are deposited in ChEMBL (CHEMBL3988442, “University of Dundee, Small-Polar-MMV Screening Library” (2021)).

Pks13 thioesterase: 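Enzyme assay of the thioesterase domain of polyketide synthase 13; the read-out is not stated. Target: Polyketide synthase Pks13, Mycobacterium tuberculosis (UniProt I6X8D2). Concentration: 30 µM. Higher reads as stronger inhibition (inferred from which compounds were picked for retests). Of about 67,000 compounds tested this way, about 300 (0.46%) reached 50% or more in at least one test.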
Toxoplasma: 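Assay of Toxoplasma gondii numbers, read through their beta-galactosidase reporter with a colour substrate. Tested at 10 µM. Higher reads as fewer parasites (inferred from which compounds were picked for retests). About 67,000 compounds were tested under these conditions; 0.38% (about 260) showed 50% or more at least once.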
CoaBC: 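Coenzyme A biosynthesis protein CoaBC, Mycobacterium tuberculosis (UniProt P9WNZ1). Enzyme assay of CoaBC with a phosphate dye (Biomol Green) read at 650 nm. Compounds at 30 µM. Direction is inferred from only a few compounds that gave an IC50; most scored high, so higher reads as stronger inhibition. Most strong results did not repeat in a second test. Of about 67,000 compounds tested this way, about 40 (0.06%) reached 50% or more in at least one test.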
MtTrpRS: 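Tryptophan-tRNA ligase, Mycobacterium tuberculosis (UniProt P9WFT3). Enzyme assay of tryptophanyl-tRNA synthetase; the read-out is not stated. Concentration: 10 µM. Direction is not recorded; retested compounds ran higher, which suggests that high means inhibition. Size under these conditions: about 65,000 compounds, about 64 of them at 50% or above in at least one test.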
LiHisRS: 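Histidine-tRNA ligase, Leishmania infantum (UniProt A4I591). Enzyme assay of histidyl-tRNA synthetase; the read-out is not stated. Compounds at 30 µM. The record gives no direction; compounds that gave an IC50 in retests scored well above the rest, so higher reads as stronger inhibition. The assay is labelled LdHisRS but filed under L. infantum. Of about 69,000 compounds tested this way, about 410 (0.6%) reached 50% or more in at least one test.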
TcHisRS: 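Enzyme assay of histidyl-tRNA synthetase; the read-out is not stated. Target: Histidine-tRNA ligase, Trypanosoma cruzi CL Brener (UniProt Q4DA54). Compounds at 30 µM. Direction is inferred from retests: higher values go with stronger inhibition. About 69,000 compounds were tested under these conditions; 0.045% (about 31) showed 50% or more at least once.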

Results are given as percent effect.
How 0% and 100% were set is not recorded. Most values in the screen are low, and negative values occur.
This is an unselected part of the compounds tested.

Cc1cc(C)n(C2CCCN(C(=O)Cn3ccc(=O)n(C)c3=O)C2)n1 (configuration not stated) gave Pks13 thioesterase: -22.99%; Toxoplasma: -9.844%; CoaBC: 10.08%; MtTrpRS: -1.574%; LiHisRS: 10.53%; TcHisRS: 2.521%.
Cn1c(NCCN2CCCCCC2)c(C#N)c(=O)n(C)c1=O gave Toxoplasma: 7.646%; CoaBC: 1.992%; MtTrpRS: -2.579%; LiHisRS: 24.66%; TcHisRS: 3.158%.
Fc1cccc(N2CCc3ncnc(N4CCOCC4)c3CC2)c1 gave Pks13 thioesterase: -32.25%; Toxoplasma: -12.55%; CoaBC: 7.992%; MtTrpRS: -0.183%; LiHisRS: 24%; TcHisRS: 2.299%.
COC(=O)C(C)(C)NC(=O)C1CC(=O)N(CC2CC2)C1 (configuration not stated) gave Pks13 thioesterase: -12.69%; Toxoplasma: -10.73%; CoaBC: 6.3%; MtTrpRS: 0.1767%; LiHisRS: 11.7%; TcHisRS: 11.06%.
CCc1ncc(C(=O)N2CCCN(C3CCCCC3)CC2)cn1 gave Pks13 thioesterase: 6.291%; Toxoplasma: -3.081%; CoaBC: 4.369%; MtTrpRS: -6.431%; LiHisRS: 19.28%; TcHisRS: 1.657%.
Cc1noc(C)c1CNC(=O)NCCC(=O)N1CCCc2ccccc21 gave Pks13 thioesterase: -6.28%; Toxoplasma: 5.737%; CoaBC: -2.42%; MtTrpRS: -1.738%; LiHisRS: 6.218%; TcHisRS: 7.182%.
COc1cc(C)sc1C(=O)N1CCCCC1c1ccccn1 (configuration not stated) gave Pks13 thioesterase: -57.26%; Toxoplasma: -14.68%; CoaBC: 0.7663%; MtTrpRS: -1.36%; LiHisRS: 23.38%; TcHisRS: 1.212%.
O=C(NCCN1CCOCC1)N(CCCO)C1CCCc2ccccc21 (configuration not stated) gave Pks13 thioesterase: 39.48%; Toxoplasma: 8.256%; CoaBC: 6.198%; MtTrpRS: 3.838%; LiHisRS: 15.18%; TcHisRS: 3.333%.
C[C@@H]1CN(C(=O)CCN2CCCC2)CC[C@@]1(O)C1CCOCC1 gave Pks13 thioesterase: -24.79%; Toxoplasma: 9.732%; CoaBC: 6.695%; MtTrpRS: 2.855%; LiHisRS: 5.714%; TcHisRS: 3.061%.
COCCN(Cc1ccccc1C)c1nc(C)nc2oc(C)nc12 gave Pks13 thioesterase: -18.28%; Toxoplasma: -1.735%; CoaBC: 5.835%; MtTrpRS: 2.886%; LiHisRS: 23.08%; TcHisRS: -0.5618%.
CC(C)OCCCNC(=O)CN1CCN(c2nccs2)C(C)C1 (configuration not stated) gave Pks13 thioesterase: 6.505%; Toxoplasma: 17.66%; CoaBC: 11.55%; MtTrpRS: -3.92%; LiHisRS: -1.667%; TcHisRS: 1.739%.
COCCC(=O)NC1CCN(CC2(c3cccc(F)c3)CCCC2)CC1.Cl gave Toxoplasma: 6.824%.
CC(O)Cc1cn(CC2CCN(C3CCSCC3)CC2)nn1 (configuration not stated) gave Pks13 thioesterase: 2.551%; Toxoplasma: -8.442%; CoaBC: 0.6135%; MtTrpRS: 1.069%; LiHisRS: 17.65%; TcHisRS: -1.235%.
CC(C)NC(=O)[C@H]1C[C@@H]2[C@@H](C1)OCCN2Cc1cnn(C)c1 gave Pks13 thioesterase: -9.177%; CoaBC: 3.934%; MtTrpRS: 0.5247%; LiHisRS: 11.32%; TcHisRS: 2.703%.
CCn1ncc(CN2C[C@@H]3CCCN3C[C@@H]2CCSC)c1C gave Pks13 thioesterase: 3.598%; CoaBC: 5.081%; LiHisRS: 22%; TcHisRS: 8.989%.
[H][C@@]12CCN(Cc3cccc(C)n3)CC[C@]1([H])[C@@H](COC)CNC2=O gave Toxoplasma: 12.68%.
Cc1ccc(N2CC[C@@H]3[C@@H]2CCN3C(=O)Cc2ccsc2)nn1 gave Pks13 thioesterase: -0.812%; CoaBC: 0.9901%; LiHisRS: 15.32%; TcHisRS: 3.315%.
O=C(CCCN1CCCCC1)N1CCN(C(=O)c2ccc[nH]2)CC1 gave Pks13 thioesterase: -28.39%; Toxoplasma: -11.24%; CoaBC: 13.67%; MtTrpRS: 1.312%; LiHisRS: 21.88%; TcHisRS: 0%.
COc1ccnc(N2CCN(C(=O)NCc3ccc(C)s3)CC2)n1 gave Pks13 thioesterase: -27.41%; Toxoplasma: -6.675%; CoaBC: 7.179%; MtTrpRS: -1.016%; LiHisRS: 10.67%; TcHisRS: 1.132%.
CN(C(=O)c1ccco1)c1nc2c(s1)CCCC2 gave Pks13 thioesterase: -5.937%; Toxoplasma: 4.899%; CoaBC: 22.09%; MtTrpRS: -40.74%; LiHisRS: 18.75%; TcHisRS: 9.375%.
CCN1C(=O)C2(CCN(CCN(C)C)CC2)c2ccccc21 gave Pks13 thioesterase: -17.04%; CoaBC: 1.856%; LiHisRS: 7.921%; TcHisRS: 2.513%.
O=C(O)C(F)(F)F.O=S(=O)(c1cccs1)N1CCCn2cnc(CN3CCCC3)c2C1 gave Toxoplasma: 1.603%.

The first 2 entries again:

{"compound": "Cc1cc(C)n(C2CCCN(C(=O)Cn3ccc(=O)n(C)c3=O)C2)n1", "stereo": "configuration not stated", "Pks13 thioesterase": -22.99, "Toxoplasma": -9.844, "CoaBC": 10.08, "MtTrpRS": -1.574, "LiHisRS": 10.53, "TcHisRS": 2.521}
{"compound": "Cn1c(NCCN2CCCCCC2)c(C#N)c(=O)n(C)c1=O", "Toxoplasma": 7.646, "CoaBC": 1.992, "MtTrpRS": -2.579, "LiHisRS": 24.66, "TcHisRS": 3.158}